According to paper PMC11132075:
These are yes or no findings as the source states them, for the method shown. Binding seen in cells or lysates may run through a third protein.

Sequences of proteins named here, by UniProt entry; tags and fusion partners are left off.
UniProt D4A9L2: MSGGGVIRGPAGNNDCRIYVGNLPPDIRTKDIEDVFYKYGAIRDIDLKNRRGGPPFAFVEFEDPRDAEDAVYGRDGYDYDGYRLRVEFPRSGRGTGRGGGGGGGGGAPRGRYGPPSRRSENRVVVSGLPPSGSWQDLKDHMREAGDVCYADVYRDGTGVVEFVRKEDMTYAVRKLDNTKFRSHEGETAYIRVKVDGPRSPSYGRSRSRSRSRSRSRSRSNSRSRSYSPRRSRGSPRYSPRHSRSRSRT
UniProt Q9JK66: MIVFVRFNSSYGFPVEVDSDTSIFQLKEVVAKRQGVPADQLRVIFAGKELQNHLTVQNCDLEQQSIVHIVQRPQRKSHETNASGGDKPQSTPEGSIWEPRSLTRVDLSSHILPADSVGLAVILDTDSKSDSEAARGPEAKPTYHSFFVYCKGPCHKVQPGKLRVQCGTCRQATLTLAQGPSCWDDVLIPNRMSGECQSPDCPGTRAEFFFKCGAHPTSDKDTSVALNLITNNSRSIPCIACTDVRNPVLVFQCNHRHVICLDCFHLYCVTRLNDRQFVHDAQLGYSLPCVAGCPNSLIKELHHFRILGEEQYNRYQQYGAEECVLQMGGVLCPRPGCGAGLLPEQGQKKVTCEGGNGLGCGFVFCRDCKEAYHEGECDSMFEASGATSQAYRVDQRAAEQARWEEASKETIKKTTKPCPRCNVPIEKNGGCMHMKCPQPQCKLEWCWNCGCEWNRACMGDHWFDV

Target: serine- and arginine-rich splicing factor 1 (Srsf1) (rat (endogenous in rat primary chondrocytes)) (UniProt D4A9L2)
Assay: co-IP; Co-IP in rat primary chondrocytes; which protein was precipitated is not told; cells also treated with prednisolone (said to promote BTRC binding to Srsf1)

“parkin RBR E3 ubiquitin-protein ligase (PARK2) (from UniProt Q9JK66 1-465) (enzyme)” was tested, and the binding was “no binding”.

B1: ring finger protein 125 (RNF125) (enzyme, UniProt A0A9K3Y7V2 1-233)
chain: MGSLLSSDSSKSAPTSSARRTLERSGDPELPITSFDCSVCLEVLHQPVRTRCGHVFCRSCIATSIKNNNKWTCPYCRAYLPSEGVPATDIAKRMKSEYQNCTECGTLVCLSDMRAHIRTCEKYIDKYGPLQELGETTARCVCPFCQRELDEDCLLDHCIIHHRSERRPVFCPLCHSQPNESPSTFSGSLIRHLQVSHTLFYDDFIDFDIIEEAIIRRVLDRSLLEYVNQSNTT
B1 was tested, and the binding was “no binding”.
